{
  "source": "paper PMC7819943",
  "about": "“Rice protein-binding microarrays: a tool to detect cis-acting elements near promoter regions in rice”",
  "note": "The other results are listed elsewhere or left out.",
  "data": [
    {"biological_target": "T1, OsSMF1 (Oryza sativa, UniProt Q6ZLB0 1-436)", "T1 sequence": "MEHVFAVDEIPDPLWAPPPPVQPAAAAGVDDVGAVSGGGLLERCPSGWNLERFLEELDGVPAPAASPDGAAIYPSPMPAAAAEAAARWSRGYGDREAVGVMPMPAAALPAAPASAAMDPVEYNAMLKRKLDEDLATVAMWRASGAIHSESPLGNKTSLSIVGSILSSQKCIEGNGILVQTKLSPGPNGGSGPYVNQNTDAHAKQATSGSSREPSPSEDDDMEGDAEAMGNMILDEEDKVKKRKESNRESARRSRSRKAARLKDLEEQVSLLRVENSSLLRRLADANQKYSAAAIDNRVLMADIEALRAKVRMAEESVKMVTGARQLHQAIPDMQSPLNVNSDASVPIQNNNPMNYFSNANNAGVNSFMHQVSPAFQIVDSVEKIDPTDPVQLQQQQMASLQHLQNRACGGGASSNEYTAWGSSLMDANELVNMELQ", "test": "protein-binding microarray (RPBM); PBS, 2% BSA, 51.3 ng/ul salmon testes DNA, 50 uM zinc acetate, 200 nM TF, 25 C, 1 h; high values mean tight binding", "details": "protein: recombinant; tags: N-terminal polyhistidine and DsRed monomer fusion (pET32a); chain copies: 2; label: CyDye5-dUTP incorporated in the synthesized complementary strand; 3' TTTTT single-stranded linker to array surface; dsDNA, one strand shown", "summary_of_the_method": "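Binding signal here means per-feature fluorescence intensity in arbitrary units. The values were read on an Axon 4000B scanner after a custom Agilent array, double-stranded by primer extension with Cy5-dUTP, was incubated with 200 nM protein at 25 °C for 1 h in PBS with 2% BSA, salmon testes DNA and 50 µM zinc acetate, then washed. The proteins were transcription factors with an N-terminal polyhistidine tag and DsRed, expressed in E. coli BL21-CodonPlus and purified on Ni–NTA.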", "values": [
      {"sequence": "GGAGTATTAGCTAGTCATCATTTGTTCTCTTCACCGACCGCGGAGTCACCTAGTGCAG", "binding signal": "3390 fluorescence intensity (a.u.)"},
      {"sequence": "GATTTACCGCCAAATATACAGAGAAGGAATGAGCCATGGACGGAGTCACCTAGTGCAG", "binding signal": "25600 fluorescence intensity (a.u.)"},
      {"sequence": "ATGATCAACCAGCAGATGTGTTGTATTTGAGGTTCTGCTACGGAGTCACCTAGTGCAG", "binding signal": "3730 fluorescence intensity (a.u.)"},
      {"sequence": "ATTTCCCTTCCCTTTCTTTCTTTCTTTCTTTCTTTCTTTCCGGAGTCACCTAGTGCAG", "binding signal": "3390 fluorescence intensity (a.u.)"},
      {"sequence": "TAGGGTAGCAATTTAAACTGGCCCGTAACTTTTATGTAAGCGGAGTCACCTAGTGCAG", "binding signal": "8730 fluorescence intensity (a.u.)"},
      {"sequence": "TTATGTCCATCTATTCTTACGTGAAAGTAACCTAATGCATCGGAGTCACCTAGTGCAG", "binding signal": "28700 fluorescence intensity (a.u.)"},
      {"sequence": "TCAGCTCAGAAATTCTTCTGCTATACTCACCCACTTGCCACGGAGTCACCTAGTGCAG", "binding signal": "3450 fluorescence intensity (a.u.)"},
      {"sequence": "GGGCCAGTTTGCTCGTACAACTCACACACACTCATATCCACGGAGTCACCTAGTGCAG", "binding signal": "3430 fluorescence intensity (a.u.)"},
      {"sequence": "CTACTACGTACCATTAGTCCAACACGTACGTACCACTGAGCGGAGTCACCTAGTGCAG", "binding signal": "4460 fluorescence intensity (a.u.)"},
      {"sequence": "ACCTCTGGTAGCAGCAGCAGCTCGCACGCAGCTCATCGTGCGGAGTCACCTAGTGCAG", "binding signal": "40700 fluorescence intensity (a.u.)"},
      {"sequence": "TGGCTCCGCCACGTCCTCGTCGCCTGGAACTCGCTCGTCTCGGAGTCACCTAGTGCAG", "binding signal": "12300 fluorescence intensity (a.u.)"},
      {"sequence": "GATTTCATTCACCAACGCATGATTTCGTTCCCCACCGCAGCGGAGTCACCTAGTGCAG", "binding signal": "4220 fluorescence intensity (a.u.)"},
      {"sequence": "CTATCATAGCACGTGGCCGCATCTCCTGTTGCCTTTCCTACGGAGTCACCTAGTGCAG", "binding signal": "4810 fluorescence intensity (a.u.)"},
      {"sequence": "CTAAGTATGGCGTTATACGATGTGGAGGCATTCATGCGAGCGGAGTCACCTAGTGCAG", "binding signal": "3280 fluorescence intensity (a.u.)"},
      {"sequence": "CCGCCGCAGCCGCAGCCGGCCAAGCTGGGCGTCGGCGACACGGAGTCACCTAGTGCAG", "binding signal": "39700 fluorescence intensity (a.u.)"},
      {"sequence": "GTCAAAGATGCCACGTAGAATAAAACCTCCTACGAAACCCCGGAGTCACCTAGTGCAG", "binding signal": "4160 fluorescence intensity (a.u.)"},
      {"sequence": "CAGCATCGTCTGAAGAAGCACAGGAGCAGGGGAGATATGGCGGAGTCACCTAGTGCAG", "binding signal": "3380 fluorescence intensity (a.u.)"},
      {"sequence": "ATCCTATGAAATTTCTATATAATGACTCATTGCATGTAGACGGAGTCACCTAGTGCAG", "binding signal": "4680 fluorescence intensity (a.u.)"},
      {"sequence": "ACACACTCCTGGAAATTACTTATTGGCTTAGATCGCTGACCGGAGTCACCTAGTGCAG", "binding signal": "4840 fluorescence intensity (a.u.)"},
      {"sequence": "TTGGCATTTGGCTCGGATGGCGCCACGTAGCATTTGCAGGCGGAGTCACCTAGTGCAG", "binding signal": "7940 fluorescence intensity (a.u.)"},
      {"sequence": "TCGCAGCGCCAGTGCAGGCGGGCACGTTGGGTGTGTAGCCCGGAGTCACCTAGTGCAG", "binding signal": "4290 fluorescence intensity (a.u.)"},
      {"sequence": "GACCATAAGTGTCCACGTATGCAAAACTCGACCTCCGTTTCGGAGTCACCTAGTGCAG", "binding signal": "13800 fluorescence intensity (a.u.)"},
      {"sequence": "TCGTAGTATCACACACTTCACACCACGTCACCACGCCCTCCGGAGTCACCTAGTGCAG", "binding signal": "20200 fluorescence intensity (a.u.)"},
      {"sequence": "GGTAACTGACGAGATTTGCATCCTTATTTCTAGCTAGTCCCGGAGTCACCTAGTGCAG", "binding signal": "3410 fluorescence intensity (a.u.)"},
      {"sequence": "TGCCCCGCCTGTCACCCACTCCGGCTGCCGCTCCACCGCTCGGAGTCACCTAGTGCAG", "binding signal": "3160 fluorescence intensity (a.u.)"}
    ]}
  ]
}
